According to article PMC11408855, “The structure of the SufS–SufE complex reveals interactions driving protected persulfide transfer in iron-sulfur cluster biogenesis” (The Journal of Biological Chemistry, 2024):
Results are given in words; binding and its absence hold for the method and conditions named. For some assays here: Where a sequence is shown, tags or fusion partners need not be part of it. One block for each binder: values may come before it.

What was measured:
[1] = biological target: T1, WT EcSufE (Escherichia coli), P76194; test: SEC; S75 10/300 column, 100 μl of 4 mg/ml protein, 50 mM Mops pH 8.0, 150 mM NaCl, 1 ml/min; both purified; settings: remark: other sources report otherwise
T1 chain: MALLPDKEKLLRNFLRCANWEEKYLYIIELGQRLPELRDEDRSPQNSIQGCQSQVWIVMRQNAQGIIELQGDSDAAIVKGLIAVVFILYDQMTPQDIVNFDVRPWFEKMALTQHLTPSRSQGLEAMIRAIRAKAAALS

[2] = biological target: R119A EcSufE (WT background) (Escherichia coli) (UniProt P76194); test: as above
[3] = biological target: R119K EcSufE (WT background) (Escherichia coli) (UniProt P76194); test: as above
[4] = biological target: T2, BODIPY-FL-labeled C51A/E107C EcSufE (Escherichia coli) (UniProt P76194); test: fluorescence polarisation; 100 nM BODIPY-FL-labeled EcSufE titrated with EcSufS; 50 mM Mops pH 8.0, 150 mM NaCl, 0.1 mg/ml bovine serum albumin, 25 °C, 30 min; absence of cysteine; apparent KD; both purified
T2 sequence (chain, BODIPY-FL maleimide label (labeling efficiency 60 to 80%)): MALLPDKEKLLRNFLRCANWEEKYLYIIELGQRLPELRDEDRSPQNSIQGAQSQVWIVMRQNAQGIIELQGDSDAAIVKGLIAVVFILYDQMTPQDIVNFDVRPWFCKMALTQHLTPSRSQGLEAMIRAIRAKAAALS

B4: D346A EcSufS, C-terminal his-tagged (enzyme, UniProt P77444 1-406)
chain: MIFSVDKVRADFPVLSREVNGLPLAYLDSAASAQKPSQVIDAEAEFYRHGYAAVHRGIHTLSAQATEKMENVRKRASLFINARSAEELVFVRGTTEGINLVANSWGNSNVRAGDNIIISQMEHHANIVPWQMLCARVGAELRVIPLNPDGTLQLETLPTLFDEKTRLLAITHVSNVLGTENPLAEMITLAHQHGAKVLVDGAQAVMHHPVDVQALDCDFYVFSGHKLYGPTGIGILYVKEALLQEMPPWEGGGSMIATVSLSEGTTWTKAPWRFEAGTPNTGGIIGLGAALEYVSALGLNNIAEYEQNLMHYALSQLESVPDLTLYGPQNRLGVIAFNLGKHHAYAVGSFLDNYGIAVRTGHHCAMPLMAYYNVPAMCRASLAMYNTHEEVDRLVTGLQRIHRLLG
modifications: PLP (pyridoxal 5'-phosphate) cofactor
- binding [4]: no binding (tested: up to 20 μM; KD >>40 μM)

B5: F350A EcSufS, C-terminal his-tagged (enzyme, UniProt P77444 1-406)
chain: MIFSVDKVRADFPVLSREVNGLPLAYLDSAASAQKPSQVIDAEAEFYRHGYAAVHRGIHTLSAQATEKMENVRKRASLFINARSAEELVFVRGTTEGINLVANSWGNSNVRAGDNIIISQMEHHANIVPWQMLCARVGAELRVIPLNPDGTLQLETLPTLFDEKTRLLAITHVSNVLGTENPLAEMITLAHQHGAKVLVDGAQAVMHHPVDVQALDCDFYVFSGHKLYGPTGIGILYVKEALLQEMPPWEGGGSMIATVSLSEGTTWTKAPWRFEAGTPNTGGIIGLGAALEYVSALGLNNIAEYEQNLMHYALSQLESVPDLTLYGPQNRLGVIAFNLGKHHAYDVGSALDNYGIAVRTGHHCAMPLMAYYNVPAMCRASLAMYNTHEEVDRLVTGLQRIHRLLG
modifications: PLP (pyridoxal 5'-phosphate) cofactor
- binding [4]: no binding (tested: up to 20 μM; KD >>40 μM)

Next, values leading:

- binding [1]: no binding (tested: 4 mg/ml)
B1: WT EcSufE, P76194 1-138 (protein)
chain: MALLPDKEKLLRNFLRCANWEEKYLYIIELGQRLPELRDEDRSPQNSIQGCQSQVWIVMRQNAQGIIELQGDSDAAIVKGLIAVVFILYDQMTPQDIVNFDVRPWFEKMALTQHLTPSRSQGLEAMIRAIRAKAAALS

- binding [2]: no binding (tested: 4 mg/ml)
B2: R119A EcSufE (WT background) (protein, UniProt P76194 1-138)
chain: MALLPDKEKLLRNFLRCANWEEKYLYIIELGQRLPELRDEDRSPQNSIQGCQSQVWIVMRQNAQGIIELQGDSDAAIVKGLIAVVFILYDQMTPQDIVNFDVRPWFEKMALTQHLTPSASQGLEAMIRAIRAKAAALS

- binding [3]: no binding (tested: 4 mg/ml)
B3: R119K EcSufE (WT background) (protein, UniProt P76194 1-138)
chain: MALLPDKEKLLRNFLRCANWEEKYLYIIELGQRLPELRDEDRSPQNSIQGCQSQVWIVMRQNAQGIIELQGDSDAAIVKGLIAVVFILYDQMTPQDIVNFDVRPWFEKMALTQHLTPSKSQGLEAMIRAIRAKAAALS
